The record followed here is the supplement of paper PMC12578635.

± gives the standard deviation of the averaged measurements. The list shows a part of the results. Single values are uncertain, as repeats are few or missing.

In this assay the test system is RAW 264.7 macrophages infected with S. aureus JE2-lux. As to the kind of experiment: host macrophage viability (CellTiter-Fluor) relative to DMSO vehicle; higher = more viable host cells. The conditions noted are these: 10 µM; treatment time 4 h; gentamicin 50 µg/ml.
On to `Cc1ccc2oc(SCc3noc(CCC(=O)Nc4nncs4)n3)nc2c1`, for which the host macrophage viability turned out to be 117%.
For the compound `COc1ccccc1NC(=O)CCCn1c(=S)[nH]c2ccccc2c1=O`, the host macrophage viability was found to be 119%.
Next, `COc1ccc(-c2nc3c4c(C)c(C)n(C5CCCCC5)c4ncn3n2)cc1`: 92.3%; `Cc1nnc(SCC(=O)N2CCc3ccccc32)[nH]c1=O`: 120%.
Next, `Cc1nn(-c2ccccc2)c2sc(C(=O)NCCc3ccccc3)cc12`: 109%; `O=C(O)c1cccnc1SC1CC(=O)N(CCc2ccccc2)C1=O` (configuration not stated): 129%; `Cn1cc(C(=O)Nc2nccs2)c2nn(-c3ccccc3)c(=O)c-2c1`: 112%.
The figure for `COc1ccc(Cl)cc1NC(=O)CSC1=NS(=O)(=O)c2cc(F)ccc2N1` is 119%.
On to `COc1ccc(NC(=O)CC2SC(=N)NC2=O)cc1Cl` (configuration not stated), for which the host macrophage viability came to 138%.
Next, `O=C(COC(=O)c1ccc2ccccc2n1)c1ccc(Cl)c(Cl)c1`: 111%; `N#Cc1c(N)nc(SCC(=O)c2ccc(Br)cc2)c(C#N)c1-c1cccs1`: 133%; `Cc1ccc2c(c1)C(O)(CC(=O)c1ccc(C)s1)C(=O)N2` (configuration not stated): 122%.
The figure for `Clc1ccccc1-n1cc(-c2ccccc2)c2c(NCc3ccco3)ncnc21` is 120%.
As to `COc1ccc(Nc2ncnc3sc(C(=O)O)c(C)c23)c(OC)c1`, the host macrophage viability was found to be 112%.
On to `O=C(c1ccccc1)c1c2c3c(ccc(S(=O)(=O)O)c3[nH]c1=O)C(=O)c1ccccc1-2`, for which the host macrophage viability turned out to be 88.3%.
Next, `O=C(Nc1nc2ccc3ccccc3c2s1)c1coc2ccccc2c1=O`: 110 ± 8.5%.
Next, `Clc1ccc2[nH]c3nc(SCc4nnc(-c5ccccc5)o4)nnc3c2c1`: 110%; `C=CCOc1ccccc1NC(=O)c1[nH]nc2c1CCCCC2`: 123%.
As for `O=C(CCCc1ccccc1)Nc1c(C(=O)Nc2ccc3c(c2)OCCO3)oc2ccccc12`, the host macrophage viability was 114%.
Next, `CCOc1cccc(-c2cc(C(=O)N/N=C/c3ccccn3)[nH]n2)c1`: 121%; `COc1ccc(CCn2nc(-c3cccnc3)oc2=O)cc1`: 120%.
The figure for `Cc1ccccc1OCC(=O)Nc1c(C(=O)Nc2ccc([N+](=O)[O-])cc2)oc2ccccc12` is 111 ± 17%; for `Cc1ccc(Cn2c(=O)c3nc(C(=O)NCc4ccco4)nn3c3ccc(C)cc32)cc1` it is 133%; for `Cc1ccc(S(=O)(=O)Nc2ccc(O)c3ncccc23)cc1` it is 116%.
Next, `COc1ccc(CCNC(=O)c2cc(-c3ccc(F)cc3)nc3[nH]nc(-c4ccccc4)c23)cc1OC`: 114%.
In the case of `COc1ccc(CCNc2ncnc(N)c2[N+](=O)[O-])cc1OC`, the host macrophage viability amounted to 125%.
The figure for `CSc1cccc(NC(=O)Cn2cccc2-c2nc(-c3ccccc3)cs2)c1` is 98%; for `O=C(CSc1nnc2n(Cc3ccccc3F)c3ccccc3n12)NC1CCCCC1` it is 116%.
In the case of `Cc1ccc(CCC(=O)Nc2ccc(Cl)c([N+](=O)[O-])c2)o1`, the host macrophage viability was 113%.
Next, `CCOC(=O)c1cc(C)nc2c1c(=O)n(Cc1nc(-c3ccc(Cl)cc3)oc1C)c(=O)n2C`: 116%; `CCC(C)NC(=O)CSc1nc2cc(C)c(C)cc2cc1C#N` (configuration not stated): 101%; `O=C(O)CCN1C(=O)C2C3CC(C2C1=O)C1C(c2ccc(Cl)cc2)c2sc(=O)[nH]c2SC31` (configuration not stated): 114%.
Next, `O=C(NCCCn1ccnc1)c1ncoc1-c1ccccc1C(F)(F)F`: 119%; `Cc1ccc(Cn2nnc(C(=O)O)c2C(=O)O)cc1`: 125%.
Next, `CCc1cccc(C)c1NC(=O)Cn1c(=O)cc(C(F)(F)F)c2c(C)nn(C)c21`: 99.2%; `COC(=O)c1c(-c2cccc(F)c2)noc1NC1CCCc2ccccc21` (configuration not stated): 111%; `Cc1ccc(/C=C/c2nc(C#N)c(N3CCN(C(=O)COc4ccc(C)cc4)CC3)o2)cc1`: 149%.
Regarding `CCC(=O)N1CCN(c2nc3ccc(C)cc3cc2-c2noc(-c3ccccc3)n2)CC1`, the host macrophage viability turned out to be 118%.
Next, `CC(C)c1ccc(NC(=O)c2cc(C(F)(F)F)n(C)n2)cc1`: 137%; `COc1ccc(NC(=O)C2CCN(c3nc4ccccc4s3)CC2)c(OC)c1`: 109%.
Next, `COc1cccc(CNC(=O)c2noc3c2CSc2ccccc2-3)c1`: 119%.
Next, `CCn1cc(C2=NOC(C(=O)NCc3ccccn3)C2)c(C)n1` (configuration not stated): 105%; `Cc1nn(C)c(C)c1NC(=O)c1ncoc1-c1ccc(F)cc1`: 134%; `Cc1cccc2sc(NNC(=O)c3ccc(N(C)C)cc3)nc12`: 116 ± 3.6%.
As to `O=C1CC(c2ccc(Br)cc2)c2cnn(-c3nc4ccccc4s3)c2N1` (configuration not stated), the host macrophage viability is 106%.
Next, `O=C(Nc1cccc(-c2ccc3nncn3n2)c1)C(c1ccccc1)c1ccccc1`: 112%.
Turning to `Cc1oc(-c2ccno2)cc1S(=O)(=O)Nc1ccc(Br)cc1F`, the host macrophage viability is 112%.
Next, `Cc1nnc(NC(=O)CSc2nnc3ccc(-c4ccncc4)nn23)s1`: 138%; `O=C(CC1CCN(C(=O)c2cc3ccccc3[nH]2)CC1)NC1CC1`: 97.9%; `O=C(CSc1nccc2ccccc12)Nc1ccccc1C(F)(F)F`: 104%.
The figure for `COc1ccc(C(=O)N(Cc2nc3[nH]c(C)cc(=O)n3n2)c2ccc(C)cc2)cc1OC` is 89.4%; for `Cc1nc(N2CCCC2)c2c(C)c(C(=O)Nc3cccc(F)c3)sc2n1` it is 105%; for `COc1ccccc1NC(=O)c1nc(Nc2cccc(C)c2)c2ccccc2n1` it is 89.5%.
The figure for `Cc1ccc(Cn2nnc3c(O)nc(Cn4nnc(-c5ccc(Cl)cc5)n4)nc32)cc1` is 115%; for `Cc1cc(C)nc(NC(=O)CCCn2nnc3cc(S(=O)(=O)N(C)C)ccc32)n1` it is 129%; for `C=CCOC(=O)C1=C(C)NC(SCC(=O)OCC)=C(C#N)C1c1cccs1` (configuration not stated) it is 133%.
On to `CCCc1nc(SCC(=O)c2ccc(Cl)cc2)c2c(=O)n(C)c(=O)n(C)c2n1`, for which the host macrophage viability was determined as 118 ± 5.2%.
Next, `Cc1ncsc1C(=O)N1CCCC(c2nc3ccccc3c(=O)[nH]2)C1` (configuration not stated): 112%; `O=C(CSc1nccc2ccccc12)Nc1c[nH]c2ccccc12`: 138%.
Next, `Cc1cccc(-c2nc3scc(CCNC(=O)c4ccc5c(c4)OCO5)n3n2)c1`: 113%; `COc1ccc(-c2cc(C(F)(F)F)c(C#N)c(SCCC(=O)O)n2)cc1`: 136%.
The figure for `CC1CCc2nc(Nc3nc4ccc(F)cc4s3)sc2C1` (configuration not stated) is 102 ± 10%.
Regarding `CCCCSc1nc2c(c(=O)[nH]1)C(c1ccc(OC)cc1)C1=C(CCCC1=O)N2` (configuration not stated), the host macrophage viability is 115%.
With `C=CCc1c(C)nc(-c2ccccc2)nc1Nc1ccc(C(=O)O)cc1`, the host macrophage viability is 123%.
As to `NC(=O)C1Cc2ccccc2N1C(=O)c1ccc(S(=O)(=O)N2CCCC2)cc1` (configuration not stated), the host macrophage viability turned out to be 115%.
Next, `CCOC(=O)C(C)NC(=O)Nc1c(-c2cccnc2)[nH]c2ccc(Cl)cc12` (configuration not stated): 98.8%.
The figure for `Cc1nc2ccccc2c2nn(CC(=O)NC3CCCC3)c(=O)n12` is 135%.
